Source: PubChem BioAssay AID1259425 (University of Nebraska Medical Center, 2018)

Purpose: 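Seek colon cancer weak points whose silencing resembles KSR1 loss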 (primary screen)
Cell system: HCT116 human colon cancer cells
Reagent: siRNA pool against human genes, 50 nM siRNA
Measurement: 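mRNA of six signature genes measured together by branched-DNA assay after 50 nM siRNA pool, blank removed, divided by geometric mean of two housekeeping genes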
Scale: BNIP3L mRNA: higher = more BNIP3L transcript after knockdown; NDRG1 mRNA: higher = more NDRG1 transcript after knockdown; BNIP3 mRNA: higher = more BNIP3 transcript after knockdown; ALDOC mRNA: higher = more ALDOC transcript after knockdown; ACSL5 mRNA: higher = more ACSL5 transcript after knockdown
This is a random part of about 14,000 reagents tested. Not stated in the record: the time to read-out.

target gene | BNIP3L mRNA, set 1 | NDRG1 mRNA, set 1 | BNIP3 mRNA, set 1 | ALDOC mRNA, set 1 | ACSL5 mRNA, set 1
CHST8 | 0.113 | 0.175 | 0.302 | 0.0226 | 0.212
STX5 | 0.188 | 0.348 | 0.417 | 0.031 | 0.162
FER | 0.302 | 0.103 | 0.611 | 0.0301 | 0.486
ELANE | 0.0914 | 0.0871 | 0.303 | 0.0085 | 0.0717
NSMCE4A | 0.137 | 0.503 | 0.308 | 0.0349 | 0.152
TTC38 | 0.139 | 0.135 | 0.248 | 0.0351 | 0.0862
DYNC1I1 | 0.148 | 0.221 | 0.294 | 0.0109 | 0.177
KRT34 | 0.0977 | 0.0769 | 0.313 | 0.0529 | 0.0684
MEGF8 | 0.103 | 0.109 | 0.297 | 0.0142 | 0.174
SOX6 | 0.176 | 0.243 | 0.553 | 0.0204 | 0.308
NRDE2 | 0.119 | 0.224 | 0.506 | 0.0556 | 0.287
ODAD4 | 0.102 | 0.45 | 0.372 | 0.125 | 0.168
REXO1 | 0.0982 | 0.182 | 0.243 | 0.0308 | 0.235

Part of the list above, reformatted:
MEGF8
- BNIP3L mRNA, set 1: 0.103
- NDRG1 mRNA, set 1: 0.109
- BNIP3 mRNA, set 1: 0.297
- ALDOC mRNA, set 1: 0.0142
- ACSL5 mRNA, set 1: 0.174

SOX6
- BNIP3L mRNA, set 1: 0.176
- NDRG1 mRNA, set 1: 0.243
- BNIP3 mRNA, set 1: 0.553
- ALDOC mRNA, set 1: 0.0204
- ACSL5 mRNA, set 1: 0.308

Further entries follow:
target gene | BNIP3L mRNA, set 1 | NDRG1 mRNA, set 1 | BNIP3 mRNA, set 1 | ALDOC mRNA, set 1 | ACSL5 mRNA, set 1
CACNG1 | 0.138 | 0.361 | 0.358 | 0.0668 | 0.244
SP6 | 0.145 | 0.685 | 0.413 | 0.0643 | 0.356
ZMAT4 | 0.191 | 0.316 | 0.465 | 0.0379 | 0.238
PITPNC1 | 0.118 | 0.202 | 0.529 | 0.0272 | 0.158
TMEM131 | 0.113 | 0.0978 | 0.257 | 0.00963 | 0.215
TMPRSS5 | 0.077 | 0.181 | 0.302 | 0.0104 | 0.133
GIP | 0.102 | 0.0959 | 0.219 | 0.0239 | 0.0456
